Experimental findings from doi:10.1101/2022.11.06.515368 are described below.

The chains behind the UniProt entries cited, without tags or fusion partners.
UniProt Q96EZ8: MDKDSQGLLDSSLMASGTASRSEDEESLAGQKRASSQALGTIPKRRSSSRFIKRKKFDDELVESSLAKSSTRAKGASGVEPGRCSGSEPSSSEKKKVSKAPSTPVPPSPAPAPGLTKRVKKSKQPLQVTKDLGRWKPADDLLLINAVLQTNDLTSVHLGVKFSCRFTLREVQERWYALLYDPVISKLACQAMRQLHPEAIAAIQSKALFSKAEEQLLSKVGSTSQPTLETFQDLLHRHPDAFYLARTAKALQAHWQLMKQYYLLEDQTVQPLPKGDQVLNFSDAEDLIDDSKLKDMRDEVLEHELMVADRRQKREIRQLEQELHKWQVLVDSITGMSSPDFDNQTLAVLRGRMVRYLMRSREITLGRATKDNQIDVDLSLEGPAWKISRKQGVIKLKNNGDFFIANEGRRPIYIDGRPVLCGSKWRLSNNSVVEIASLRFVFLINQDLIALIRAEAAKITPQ

These are yes or no findings as the source states them, for the method shown. In cells and extracts the contact can be indirect. Some results given as binding are weak or reduced against the parent protein; the word gives no strength.

The target in this experiment is FLAG-tagged MCRS1 (UniProt Q96EZ8). Description: co-IP.

B1: CCDC85B (protein, UniProt Q15834 1-202)
chain: MEAEAGGLEELTDEEMAALGKEELVRRLRREEAARLAALVQRGRLMQEVNRQLQGHLGEIRELKQLNRRLQAENRELRDLCCFLDSERQRGRRAARQWQLFGTQASRAVREDLGGCWQKLAELEGRQEELLRENLALKELCLALGEEWGPRGGPSGAGGSGAGPAPELALPPCGPRDLGDGSSSTGSVGSPDQLPLACSPDD
In the case of B1, the binding result is reported as “binds”.
